Results on 38 molecules are retold here after US20020076728A1, “Engineering affinity ligands for macromolecules” (priority 1997, published 2002).

Chains of the proteins cited; added tags and fusions are not shown. Residues count along the entry.
UniProt P00750, residues 36-562: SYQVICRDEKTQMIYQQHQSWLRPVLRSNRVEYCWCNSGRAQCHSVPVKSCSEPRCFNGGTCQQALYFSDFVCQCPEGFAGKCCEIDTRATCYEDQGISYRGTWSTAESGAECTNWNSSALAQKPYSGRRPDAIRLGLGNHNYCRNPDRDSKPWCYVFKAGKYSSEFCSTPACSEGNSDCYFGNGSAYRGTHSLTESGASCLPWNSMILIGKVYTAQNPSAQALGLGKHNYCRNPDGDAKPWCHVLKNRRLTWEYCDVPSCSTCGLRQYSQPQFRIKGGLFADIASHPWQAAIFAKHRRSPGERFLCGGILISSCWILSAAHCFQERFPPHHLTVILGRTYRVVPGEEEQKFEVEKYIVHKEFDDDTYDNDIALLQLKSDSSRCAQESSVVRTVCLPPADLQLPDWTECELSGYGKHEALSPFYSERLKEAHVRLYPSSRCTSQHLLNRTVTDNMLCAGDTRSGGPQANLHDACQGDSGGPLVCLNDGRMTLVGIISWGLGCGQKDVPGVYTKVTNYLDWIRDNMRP

No constants are given. Whether binding was seen depends on the method and setting. Some binding calls cover weakened binding; strength is not graded here.

The target in the first experiment is recombinant human tissue-type plasminogen activator (human) (UniProt P00750). In words: phage selection on tPA-agarose beads, bound at pH 7, eluted at pH 2 after a pH 5 elution.
RWCPRSNLECMKDSDCLAECVCLEHGYCG (designed binder) [CMTI-I analogue 226 (phage isolate)]: the binding entry is “binds”. For RWCPKYTLECMKDSDCLAECVCLEHGYCG (designed binder) [CMTI-I analogue 230 (phage isolate)], the binding entry is on record as “binds”. On the same count and under the same terms, then RWCPKTSLGCMKDSDCLAECVCLEHGYCG (designed binder) [CMTI-I analogue 232 (phage isolate)], with “binds”; and RWCPKYTLECMKDSDCLAECVCLEHGYCG (designed binder) [CMTI-I analogue 233 (phage isolate)], with “binds”. Consider RWCPRSSLECMKDSDCLAECVCLEHGYCG (designed binder) [CMTI-I analogue 236 (phage isolate)], for which the binding result was “binds”.

As for RWCPRSNLECMKDSDCLAECVCLEHGYCG (designed binder) [CMTI-I analogue 227 (phage isolate)], the binding result is reported as “binds”. Still for that read-out and setting: the same measure for RWCPKSTLGCMKDSDCLAECVCLEHGYCG (designed binder) [CMTI-I analogue 221 (phage isolate)]: “binds”; for RWCPKYTLECMKDSDCLAECVCLEHGYCG (designed binder) [CMTI-I analogue 223 (phage isolate)]: “binds”. On to RWCPRSNLECMKDSDCLAECVCLEHGYCG (designed binder) [CMTI-I analogue 238 (phage isolate)], for which the binding result is “binds”.

For RWCPKYTLECMKDSDCLAECVCLEHGYCG (designed binder) [CMTI-I analogue 225 (phage isolate)], the binding result is “binds”. The same measure, in the same setting: the same measure for RWCPKSTLGCMKDSDCLAECVCLEHGYCG (designed binder) [CMTI-I analogue 222 (phage isolate)]: “binds”. The same measure, in the same setting: then RWCPRSSLECMKDSDCLAECVCLEHGYCG (designed binder) [CMTI-I analogue 224 (phage isolate)], with “binds”; and RWCPKYTLECMKDSDCLAECVCLEHGYCG (designed binder) [CMTI-I analogue 229 (phage isolate)], with “binds”; and RWCPRSSLECMKDSDCLAECVCLEHGYCG (designed binder) [CMTI-I analogue 234 (phage isolate)], with “binds”.

Take RWCPKYTLECMKDSDCLAECVCLEHGYCG (designed binder) [CMTI-I analogue 228 (phage isolate)]: the binding result is “binds”. Same read-out and setting: then RWCPRSNLECMKDSDCLAECVCLEHGYCG (designed binder) [CMTI-I analogue 237 (phage isolate)], with “binds”; and RWCPRSTLECMKDSDCLAECVCLEHGYCG (designed binder) [CMTI-I analogue 231 (phage isolate)], with “binds”; and RWCPKSTLGCMKDSDCLAECVCLEHGYCG (designed binder) [CMTI-I analogue 235 (phage isolate)], with “binds”.

The next experiment has the same target. Briefly: clonal phage on tPA-agarose beads, release at pH 5 then pH 2.
Turning to RWCPTAPLECMKDSDCLAECVCLEHGYCG (designed binder) [CMTI-I analogue 112 (phage isolate)], the binding result was “binds”. Still for that read-out and setting: then RWCSKSSLECMKDSDCLAECVCLEHGYCG (designed binder) [CMTI-I analogue 108 (phage isolate)], with “binds”. As for RWCSTYSLGCMKDSDCLAECVCLEHGYCG (designed binder) [CMTI-I analogue 106 (phage isolate)], the binding entry is “binds”. For the molecule RWCPKTSLGCMKDSDCLAECVCLEHGYCG (designed binder) [CMTI-I analogue 232 (phage isolate)], the binding entry was “binds”. As to RWCPKTSLGCMKDSDCLAECVCLEHGYCG (designed binder) [CMTI-I analogue 101 (phage isolate)], the binding result is given as “binds”. Still for that read-out and setting: the same measure for RWCPKTSLECMKDSDCLAECVCLEHGYCG (designed binder) [CMTI-I analogue 120 (phage isolate)]: “binds”; for RLCPKTSLECMKDSDCLAECVCLEHGYCG (designed binder) [CMTI-I analogue 105 (phage isolate)]: “binds”; for RWCPKSSMGCKKDSDCLAECVCLEHGYCG (designed binder) [CMTI-I analogue 110 (phage isolate)]: “binds”. With RWCIRTDLGCMKDSDCLAECVCLEHGYCG (designed binder) [CMTI-I analogue 116 (phage isolate)], the binding result is given as “binds”. Same read-out and setting: the same measure for RWCSTYSLGCMKDSDCLAECVCLEHGYCG (designed binder) [CMTI-I analogue 104 (phage isolate)]: “binds”; for RWCPRTVQECMKDSDCLAECVCLEHGYCG (designed binder) [CMTI-I analogue 111 (phage isolate)]: “binds”.

With RLCPKTDLGCMKDSDCLAECVCLEHGYCG (designed binder) [CMTI-I analogue 113 (phage isolate)], the binding result is on record as “binds”. Same read-out and setting: then RWCPKSALDCKKDSDCLAECVCLEHGYCG (designed binder) [CMTI-I analogue 114 (phage isolate)], with “binds”; and RLCPKTDLGCMKDSDCLAECVCLEHGYCG (designed binder) [CMTI-I analogue 109 (phage isolate)], with “binds”.

As to RLCPKTSLECMKDSDCLAECVCLEHGYCG (designed binder) [CMTI-I analogue 107 (phage isolate)], the binding entry is on record as “binds”. Same read-out and setting: then RLCPKTYLGCMKDSDCLAECVCLEHGYCG (designed binder) [CMTI-I analogue 102 (phage isolate)], with “binds”. Same read-out and setting: then RWCPRTVRRCMKDSDCLAECVCLEHGYCG (designed binder) [CMTI-I analogue 118 (phage isolate)], with “binds”; and RWCTKTSRECMKDSDCLAECVCLEHGYCG (designed binder) [CMTI-I analogue 115 (phage isolate)], with “binds”; and RWCPKTHKECMKDSDCLAECVCLEHGYCG (designed binder) [CMTI-I analogue 119 (phage isolate)], with “binds”. Turning to RWCSTYSLGCMKDSDCLAECVCLEHGYCG (designed binder) [CMTI-I analogue 103 (phage isolate)], the binding entry was “binds”. On to RWCPKTSLGCMKDSDCLAECVCLEHGYCG (designed binder) [CMTI-I analogue 117 (phage isolate)], for which the binding result was “binds”.
